The list shows a part of the results.
Each target was assayed with Cc1sc2c(c1C)C(c1ccc(Cl)cc1)=N[C@@H](CC(=O)OC(C)(C)C)c1nnc(C)n1-2 (assay: log2 fold change, soluble protein after heating vs DMSO (PISA); higher = thermal stabilisation; K562 lysate, 10 uM; active = over 0.2 and 3.5 SD of the protein, either way, in both replicates (recomputed)).
Outline: (§1)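 A 30 min treatment with 10 μM compound was applied to crude K562 extract at 1 mg/mL protein in PBS pH 7.4 with 1 mM MgCl2. Heating for 3 min spanned 48°C-58°C, after which aliquots were pooled, adjusted to 0.5% NP-40 at 4°C and spun at 21,000xg for 90 min. TMTpro 16plex LC-MS/MS of the supernatant, with channel sums equalised, gave values recorded as log-two fold change in thermal stability against solvent controls, from duplicates.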

Chains of the proteins cited; added tags and fusions are not shown. Lines headed by an entry give the natural chain unless they say otherwise; changes in a name come on top.
UniProt O95182, whole entry, looked up: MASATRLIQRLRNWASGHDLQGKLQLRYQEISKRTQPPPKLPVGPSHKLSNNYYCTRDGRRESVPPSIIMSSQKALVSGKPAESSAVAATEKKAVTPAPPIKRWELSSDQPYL
UniProt O95139, whole entry, looked up: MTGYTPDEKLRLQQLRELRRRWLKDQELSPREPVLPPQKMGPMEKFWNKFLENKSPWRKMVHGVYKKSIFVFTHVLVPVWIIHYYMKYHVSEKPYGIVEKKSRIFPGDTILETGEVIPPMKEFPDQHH
UniProt P49821, whole entry, looked up: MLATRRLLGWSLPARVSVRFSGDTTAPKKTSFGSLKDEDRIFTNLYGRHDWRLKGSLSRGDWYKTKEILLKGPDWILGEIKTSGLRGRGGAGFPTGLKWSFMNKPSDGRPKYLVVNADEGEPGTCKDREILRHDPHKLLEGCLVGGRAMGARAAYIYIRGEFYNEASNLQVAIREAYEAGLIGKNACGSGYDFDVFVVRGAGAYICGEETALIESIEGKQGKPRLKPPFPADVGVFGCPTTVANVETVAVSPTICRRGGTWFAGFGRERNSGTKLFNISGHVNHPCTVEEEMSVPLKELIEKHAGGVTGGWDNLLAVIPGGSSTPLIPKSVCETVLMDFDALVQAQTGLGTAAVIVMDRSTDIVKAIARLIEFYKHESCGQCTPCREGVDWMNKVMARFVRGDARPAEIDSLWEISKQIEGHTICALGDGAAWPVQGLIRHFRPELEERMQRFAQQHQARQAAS
UniProt O43676, whole entry, looked up: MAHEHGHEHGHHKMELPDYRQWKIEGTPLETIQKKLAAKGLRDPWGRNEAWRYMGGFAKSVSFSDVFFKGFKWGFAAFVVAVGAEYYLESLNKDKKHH
UniProt P51970, whole entry, looked up: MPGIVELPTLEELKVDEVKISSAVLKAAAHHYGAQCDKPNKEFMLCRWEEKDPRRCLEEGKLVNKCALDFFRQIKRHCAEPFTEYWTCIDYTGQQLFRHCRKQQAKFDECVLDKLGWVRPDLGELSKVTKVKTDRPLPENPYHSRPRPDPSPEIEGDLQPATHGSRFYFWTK
UniProt P51956: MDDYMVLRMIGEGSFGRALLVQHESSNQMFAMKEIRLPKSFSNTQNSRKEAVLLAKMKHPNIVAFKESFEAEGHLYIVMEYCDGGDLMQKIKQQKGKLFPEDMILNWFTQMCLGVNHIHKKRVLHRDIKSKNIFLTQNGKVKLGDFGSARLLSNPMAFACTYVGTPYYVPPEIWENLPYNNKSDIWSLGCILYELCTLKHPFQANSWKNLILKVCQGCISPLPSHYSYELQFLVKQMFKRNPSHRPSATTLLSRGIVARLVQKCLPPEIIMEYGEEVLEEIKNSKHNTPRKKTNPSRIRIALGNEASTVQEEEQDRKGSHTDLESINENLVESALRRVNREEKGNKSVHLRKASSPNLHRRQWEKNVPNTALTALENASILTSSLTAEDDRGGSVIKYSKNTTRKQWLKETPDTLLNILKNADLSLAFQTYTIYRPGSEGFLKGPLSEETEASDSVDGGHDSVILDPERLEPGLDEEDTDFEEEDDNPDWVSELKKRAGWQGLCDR
UniProt P08651, whole entry, looked up: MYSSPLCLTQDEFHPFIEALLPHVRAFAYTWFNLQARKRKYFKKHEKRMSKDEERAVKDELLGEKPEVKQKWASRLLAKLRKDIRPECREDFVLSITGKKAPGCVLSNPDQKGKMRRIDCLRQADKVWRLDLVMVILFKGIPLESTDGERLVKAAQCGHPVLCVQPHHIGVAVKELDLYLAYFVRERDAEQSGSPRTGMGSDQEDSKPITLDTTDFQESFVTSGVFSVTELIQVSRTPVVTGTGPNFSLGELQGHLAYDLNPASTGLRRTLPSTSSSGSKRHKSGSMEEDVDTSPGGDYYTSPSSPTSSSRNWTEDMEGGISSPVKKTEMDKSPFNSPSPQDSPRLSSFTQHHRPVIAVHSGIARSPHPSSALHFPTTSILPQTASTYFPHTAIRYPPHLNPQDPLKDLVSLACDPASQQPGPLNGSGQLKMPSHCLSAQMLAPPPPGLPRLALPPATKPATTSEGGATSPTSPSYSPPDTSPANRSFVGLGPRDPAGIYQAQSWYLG
UniProt Q9NVZ3: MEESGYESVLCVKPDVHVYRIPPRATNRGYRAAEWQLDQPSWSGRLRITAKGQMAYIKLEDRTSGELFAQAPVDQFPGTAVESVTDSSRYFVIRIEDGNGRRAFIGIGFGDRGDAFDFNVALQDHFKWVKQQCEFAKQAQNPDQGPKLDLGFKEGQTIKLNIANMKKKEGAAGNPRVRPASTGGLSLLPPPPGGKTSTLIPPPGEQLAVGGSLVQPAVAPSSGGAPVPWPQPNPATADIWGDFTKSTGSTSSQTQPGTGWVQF
UniProt Q7RTR2: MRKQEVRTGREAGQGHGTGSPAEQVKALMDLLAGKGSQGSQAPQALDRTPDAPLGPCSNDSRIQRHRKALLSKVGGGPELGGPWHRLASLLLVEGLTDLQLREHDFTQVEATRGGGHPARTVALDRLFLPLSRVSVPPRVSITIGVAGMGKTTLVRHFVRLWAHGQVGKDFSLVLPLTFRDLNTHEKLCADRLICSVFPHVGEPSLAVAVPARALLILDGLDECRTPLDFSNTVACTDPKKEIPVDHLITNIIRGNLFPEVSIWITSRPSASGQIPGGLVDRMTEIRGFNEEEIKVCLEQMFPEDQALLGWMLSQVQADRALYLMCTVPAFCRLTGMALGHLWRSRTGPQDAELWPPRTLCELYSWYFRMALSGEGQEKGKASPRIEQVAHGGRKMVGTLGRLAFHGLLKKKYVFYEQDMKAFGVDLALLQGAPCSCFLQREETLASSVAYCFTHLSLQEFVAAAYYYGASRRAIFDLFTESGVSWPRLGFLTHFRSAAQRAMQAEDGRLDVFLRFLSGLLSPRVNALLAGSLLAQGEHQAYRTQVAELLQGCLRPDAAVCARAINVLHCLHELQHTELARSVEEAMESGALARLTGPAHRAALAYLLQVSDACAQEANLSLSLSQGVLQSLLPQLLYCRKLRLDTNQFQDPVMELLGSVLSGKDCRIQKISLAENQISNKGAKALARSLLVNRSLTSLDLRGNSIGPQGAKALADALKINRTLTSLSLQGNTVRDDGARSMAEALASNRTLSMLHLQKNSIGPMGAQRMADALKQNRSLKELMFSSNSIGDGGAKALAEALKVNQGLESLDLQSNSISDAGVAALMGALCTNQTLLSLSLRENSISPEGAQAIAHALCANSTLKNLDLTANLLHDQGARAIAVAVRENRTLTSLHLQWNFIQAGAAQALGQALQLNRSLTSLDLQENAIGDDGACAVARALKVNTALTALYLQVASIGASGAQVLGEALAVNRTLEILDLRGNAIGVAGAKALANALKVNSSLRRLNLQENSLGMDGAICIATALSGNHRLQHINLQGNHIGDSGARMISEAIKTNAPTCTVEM
UniProt O95299, whole entry, looked up: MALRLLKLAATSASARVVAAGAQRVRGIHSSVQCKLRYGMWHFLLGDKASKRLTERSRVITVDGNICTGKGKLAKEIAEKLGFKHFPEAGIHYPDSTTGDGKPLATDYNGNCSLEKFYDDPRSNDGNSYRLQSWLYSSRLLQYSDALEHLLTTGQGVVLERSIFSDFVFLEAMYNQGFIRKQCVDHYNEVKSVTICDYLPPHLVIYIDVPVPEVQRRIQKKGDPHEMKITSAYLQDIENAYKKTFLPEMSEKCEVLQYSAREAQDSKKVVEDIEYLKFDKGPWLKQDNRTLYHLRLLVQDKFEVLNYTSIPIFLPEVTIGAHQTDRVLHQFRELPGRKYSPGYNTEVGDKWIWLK
UniProt Q6ZNB6: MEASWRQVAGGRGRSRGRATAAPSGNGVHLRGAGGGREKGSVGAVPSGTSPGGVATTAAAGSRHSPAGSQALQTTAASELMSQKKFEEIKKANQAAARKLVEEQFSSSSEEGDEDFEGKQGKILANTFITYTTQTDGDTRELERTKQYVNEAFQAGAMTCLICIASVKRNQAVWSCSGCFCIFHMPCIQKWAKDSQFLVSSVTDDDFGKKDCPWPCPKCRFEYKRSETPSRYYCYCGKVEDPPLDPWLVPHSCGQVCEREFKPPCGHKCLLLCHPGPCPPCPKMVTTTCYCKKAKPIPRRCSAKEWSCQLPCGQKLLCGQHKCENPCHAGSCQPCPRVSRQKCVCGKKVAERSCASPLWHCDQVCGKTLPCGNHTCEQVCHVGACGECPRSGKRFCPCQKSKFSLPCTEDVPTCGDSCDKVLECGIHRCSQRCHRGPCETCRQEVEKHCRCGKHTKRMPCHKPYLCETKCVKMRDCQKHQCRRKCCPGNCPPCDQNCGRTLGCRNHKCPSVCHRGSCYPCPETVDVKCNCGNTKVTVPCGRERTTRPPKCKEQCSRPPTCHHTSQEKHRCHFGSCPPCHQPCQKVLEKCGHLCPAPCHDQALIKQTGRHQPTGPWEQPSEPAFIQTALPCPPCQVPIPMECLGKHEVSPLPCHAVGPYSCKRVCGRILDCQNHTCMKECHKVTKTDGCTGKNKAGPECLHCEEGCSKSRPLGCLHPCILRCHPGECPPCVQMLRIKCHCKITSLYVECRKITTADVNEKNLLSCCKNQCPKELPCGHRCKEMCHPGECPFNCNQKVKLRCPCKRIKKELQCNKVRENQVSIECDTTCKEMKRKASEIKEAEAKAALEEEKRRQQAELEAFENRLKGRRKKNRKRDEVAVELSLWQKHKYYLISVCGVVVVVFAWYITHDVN
UniProt P56181: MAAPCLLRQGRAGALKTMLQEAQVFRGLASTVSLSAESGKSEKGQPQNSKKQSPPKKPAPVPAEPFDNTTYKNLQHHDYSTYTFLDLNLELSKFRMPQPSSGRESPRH
UniProt Q9GZM8: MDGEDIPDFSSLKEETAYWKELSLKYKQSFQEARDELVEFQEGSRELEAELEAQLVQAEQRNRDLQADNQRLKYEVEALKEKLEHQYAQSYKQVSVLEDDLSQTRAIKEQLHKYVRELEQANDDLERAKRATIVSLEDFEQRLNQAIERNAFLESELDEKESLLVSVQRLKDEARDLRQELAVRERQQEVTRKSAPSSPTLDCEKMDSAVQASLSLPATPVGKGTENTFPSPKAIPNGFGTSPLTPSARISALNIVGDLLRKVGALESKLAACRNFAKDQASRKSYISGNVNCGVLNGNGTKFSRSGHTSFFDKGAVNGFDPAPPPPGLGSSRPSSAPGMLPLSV
UniProt Q15843, whole entry, looked up: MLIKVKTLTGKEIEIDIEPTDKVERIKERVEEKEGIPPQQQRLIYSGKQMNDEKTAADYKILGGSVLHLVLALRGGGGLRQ
UniProt Q16795, whole entry, looked up: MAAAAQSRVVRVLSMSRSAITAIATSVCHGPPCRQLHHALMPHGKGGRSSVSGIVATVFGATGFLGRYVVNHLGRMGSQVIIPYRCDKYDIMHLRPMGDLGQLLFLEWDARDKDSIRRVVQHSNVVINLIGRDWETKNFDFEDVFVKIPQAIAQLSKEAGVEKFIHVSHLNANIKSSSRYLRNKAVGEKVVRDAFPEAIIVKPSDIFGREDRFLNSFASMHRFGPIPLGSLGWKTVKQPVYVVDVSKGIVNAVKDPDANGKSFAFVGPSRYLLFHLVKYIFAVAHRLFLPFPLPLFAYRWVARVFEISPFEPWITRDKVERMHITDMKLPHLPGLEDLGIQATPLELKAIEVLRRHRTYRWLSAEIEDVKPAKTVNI
UniProt O43181, whole entry, looked up: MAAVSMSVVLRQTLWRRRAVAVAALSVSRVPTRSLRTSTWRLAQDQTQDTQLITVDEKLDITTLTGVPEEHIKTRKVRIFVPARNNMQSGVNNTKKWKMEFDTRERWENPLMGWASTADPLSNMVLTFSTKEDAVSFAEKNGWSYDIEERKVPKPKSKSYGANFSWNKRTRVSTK
UniProt Q8NBF2: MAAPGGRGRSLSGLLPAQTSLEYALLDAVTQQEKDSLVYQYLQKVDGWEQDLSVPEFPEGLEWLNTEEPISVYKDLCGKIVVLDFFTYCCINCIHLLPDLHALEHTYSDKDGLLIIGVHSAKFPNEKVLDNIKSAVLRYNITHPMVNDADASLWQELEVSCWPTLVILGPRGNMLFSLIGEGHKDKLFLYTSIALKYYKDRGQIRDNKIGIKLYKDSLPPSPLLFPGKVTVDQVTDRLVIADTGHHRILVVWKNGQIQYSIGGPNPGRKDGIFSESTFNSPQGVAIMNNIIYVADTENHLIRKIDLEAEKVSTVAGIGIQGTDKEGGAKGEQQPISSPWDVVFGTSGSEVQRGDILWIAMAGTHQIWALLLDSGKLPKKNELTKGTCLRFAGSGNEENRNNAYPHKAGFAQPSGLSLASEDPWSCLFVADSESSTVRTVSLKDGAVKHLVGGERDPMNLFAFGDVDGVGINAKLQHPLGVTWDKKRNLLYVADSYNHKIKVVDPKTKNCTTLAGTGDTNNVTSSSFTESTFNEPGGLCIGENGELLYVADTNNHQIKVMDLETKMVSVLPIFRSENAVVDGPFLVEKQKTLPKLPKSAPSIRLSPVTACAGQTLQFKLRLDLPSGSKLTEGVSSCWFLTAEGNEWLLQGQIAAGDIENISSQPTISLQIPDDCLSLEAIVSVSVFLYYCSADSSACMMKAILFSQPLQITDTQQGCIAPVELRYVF
UniProt Q9Y6M9, whole entry, looked up: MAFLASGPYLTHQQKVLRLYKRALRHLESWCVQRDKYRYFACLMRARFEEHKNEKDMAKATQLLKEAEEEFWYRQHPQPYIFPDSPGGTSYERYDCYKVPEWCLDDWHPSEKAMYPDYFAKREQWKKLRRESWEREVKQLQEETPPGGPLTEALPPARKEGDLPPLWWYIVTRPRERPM

Target	log2 fold change
NDUFC2 (UniProt O95298)	inactive: 0.008
NDUFA7 (UniProt O95182)	inactive: -0.021
NDUFB6 (UniProt O95139)	inactive: -0.04
NDUFV1 (UniProt P49821)	inactive: 0.014
NDST1 (UniProt P52848)	inactive: 0.109
NDUFB3 (UniProt O43676)	inactive: 0.005
NDUFA8 (UniProt P51970)	inactive: 0.056
NFKBIA (UniProt P25963)	inactive: 0.016
NEBL (UniProt O76041)	inactive: 0.043
NELFCD (UniProt Q8IXH7)	inactive: 0.003
NEK3 (UniProt P51956)	inactive: 0.066
NFIC (UniProt P08651)	inactive: 0.052
NECAP2 (UniProt Q9NVZ3)	inactive: -0.003
NLRC3 isoform 2 (UniProt Q7RTR2)	inactive: -0.131
NDUFA10 (UniProt O95299)	inactive: -0.017
NFXL1 (UniProt Q6ZNB6)	inactive: -0.022
NDUFV3 (UniProt P56181)	inactive: -0.108
NISCH (UniProt Q9Y2I1)	inactive: 0.017

Target	log2 fold change
NLN (UniProt Q9BYT8)	inactive: -0.011
NDEL1 isoform 2 (UniProt Q9GZM8)	inactive: -0.003
NEDD1 isoform 3 (UniProt Q8NHV4)	inactive: -0.042
NDUFA13 (UniProt Q9P0J0)	inactive: -0.003
NFAT5 isoform 5 (UniProt O94916)	inactive: -0.02
NEDD8 (UniProt Q15843)	inactive: 0.002
NEU3 isoform 2 (UniProt Q9UQ49)	inactive: -0.001
NDUFA9 (UniProt Q16795)	inactive: -0.007
NDUFS4 (UniProt O43181)	inactive: -0.023
NDUFB5 (UniProt O43674)	inactive: -0.05
NFYA (UniProt P23511)	inactive: 0.1
NHLRC2 (UniProt Q8NBF2)	inactive: -0.006
NKTR (UniProt P30414)	inactive: -0.38
NDUFB9 (UniProt Q9Y6M9)	inactive: 0.065
NDUFS6 (UniProt O75380)	inactive: 0.004
NIT1 (UniProt Q86X76)	inactive: 0.034
NEK1 isoform 3 (UniProt Q96PY6)	inactive: 0.023

The targets below were run with c1ccc([C@@H]2C[C@H]2NC2CCNCC2)cc1 in the same assay as above.
Outline: as §1

Target	log2 fold change
NDUFC2 (UniProt O95298)	inactive: -0.029
NDUFA7 (UniProt O95182)	inactive: 0.021
NDUFB6 (UniProt O95139)	inactive: -0.077
NDUFV1 (UniProt P49821)	inactive: 0.004
NDUFB3 (UniProt O43676)	inactive: 0.016
NDUFA8 (UniProt P51970)	inactive: 0.1
NEBL (UniProt O76041)	inactive: 0.014
NELFCD (UniProt Q8IXH7)	inactive: 0.025
NEK3 (UniProt P51956)	inactive: -0.097
NFIC (UniProt P08651)	inactive: -0.177
NECAP2 (UniProt Q9NVZ3)	inactive: 0.03
NDUFA10 (UniProt O95299)	inactive: 0.084
NFXL1 (UniProt Q6ZNB6)	inactive: -0.059
NDUFV3 (UniProt P56181)	inactive: -0.019
NISCH (UniProt Q9Y2I1)	inactive: 0.083
NLN (UniProt Q9BYT8)	inactive: 0.067

Target	log2 fold change
NDEL1 isoform 2 (UniProt Q9GZM8)	inactive: 0.011
NEDD1 isoform 3 (UniProt Q8NHV4)	inactive: 0.02
NDUFA13 (UniProt Q9P0J0)	inactive: 0.064
NFAT5 isoform 5 (UniProt O94916)	inactive: -0.007
NEDD8 (UniProt Q15843)	inactive: 0.085
NDUFA9 (UniProt Q16795)	inactive: 0.085
NDUFS4 (UniProt O43181)	inactive: -0.031
NDUFB5 (UniProt O43674)	inactive: 0.024
NFYA (UniProt P23511)	inactive: -0.035
NHLRC2 (UniProt Q8NBF2)	inactive: -0.017
NKTR (UniProt P30414)	inactive: -0.218
NDUFB9 (UniProt Q9Y6M9)	inactive: 0.069
NDUFS6 (UniProt O75380)	inactive: -0.005
NIT1 (UniProt Q86X76)	inactive: -0.074
NEK1 isoform 3 (UniProt Q96PY6)	inactive: 0.015

Reference: the supplement of paper PMC10849652
